Reference: PubChem BioAssay AID1224830 (NIAID, 2016)

- Assay: 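Genes whose knock-down alters the TNF-alpha reporter response to LPS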 (primary screen)
- Cells: human THP-1 monocytic leukaemia cells, TNF dual-luciferase reporter clone, PMA-differentiated to macrophage-like cells
- Knock-down reagent: siRNA pool against human genes, 50 nM
- Time to read-out: LPS for 4 h, given about 3 days after siRNA transfection
- Challenge: bacterial LPS (TLR4 ligand), 10 ng/ml
- Measurement: 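Ratio of firefly to renilla light, scaled to the plate median and expressed as a robust z-score per replicate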
- Direction: TNF reporter robust z-score: higher = stronger TNF reporter response to LPS
- Hit rule: 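Each well counts as active if its z-score is over 2.8 or under -1.5; controls are left without a call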
This is a random part of about 18,000 reagents tested. About 2,900 of them (16%) count as active. 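Calls are made per well; low scores hint the gene aids the LPS response, high scores that it dampens it.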 Repeated entries: four replicate wells of each siRNA pool.

gene symbol	TNF reporter robust z-score	activity call
MEMO1	1.01	inactive
MEMO1	1.15	inactive
MEMO1	0.61	inactive
MEMO1	0.33	inactive
ISCA1	0.38	inactive
ISCA1	1.03	inactive
ISCA1	0	inactive
ISCA1	0.58	inactive
GAL3ST2	0.42	inactive
GAL3ST2	-0.61	inactive
GAL3ST2	1.34	inactive
GAL3ST2	1.54	inactive
GAGE5	0.45	inactive
GAGE5	-0.02	inactive
GAGE5	0.25	inactive
GAGE5	0.29	inactive
TPGS1	0.45	inactive
TPGS1	0.12	inactive
TPGS1	-0.03	inactive
TPGS1	-0.32	inactive
AP3B1	-1.4	inactive
AP3B1	-1.12	inactive
AP3B1	-0.65	inactive
AP3B1	0.57	inactive
KLRC1	2.26	inactive
KLRC1	1.24	inactive
KLRC1	1.65	inactive
KLRC1	3.9	active
ZNF687	2.08	inactive
ZNF687	2.8	active
ZNF687	1.11	inactive
ZNF687	2.09	inactive
ZNG1F	1.47	inactive
ZNG1F	1.05	inactive
ZNG1F	0.74	inactive
ZNG1F	1.58	inactive
RNASEL	2.68	inactive
RNASEL	1.54	inactive
RNASEL	6.36	active
RNASEL	3.51	active
TCERG1L	-1.11	inactive
TCERG1L	-0.81	inactive
TCERG1L	-0.49	inactive
TCERG1L	-0.47	inactive
TMEM33	-0.1	inactive
TMEM33	0.3	inactive
TMEM33	-1.08	inactive
TMEM33	1.29	inactive
ACSM2B	0.44	inactive
ACSM2B	0.5	inactive
ACSM2B	0.6	inactive
ACSM2B	0.87	inactive
ISL2	-0.28	inactive
ISL2	0.94	inactive
ISL2	1.31	inactive
ISL2	1.37	inactive
TBATA	-0.79	inactive
TBATA	-1.05	inactive
TBATA	0.11	inactive
TBATA	0.23	inactive
HS6ST2	-1.23	inactive
HS6ST2	-0.75	inactive
HS6ST2	-0.1	inactive
HS6ST2	-0.23	inactive
RAD52	-0.59	inactive
RAD52	0.15	inactive
RAD52	-0.36	inactive
RAD52	0.59	inactive
USH1G	3.1	active
USH1G	1.38	inactive
USH1G	0.98	inactive
USH1G	1.04	inactive
ZNF22	-0.75	inactive
ZNF22	-0.06	inactive
ZNF22	-0.72	inactive
ZNF22	-0.32	inactive
TBL2	-0.87	inactive
TBL2	-0.94	inactive
TBL2	-1.01	inactive
TBL2	-1.13	inactive
SMARCC2	2.25	inactive
SMARCC2	2.42	inactive
SMARCC2	2.06	inactive
SMARCC2	3.16	active
GPR4	-0.96	inactive
GPR4	-0.52	inactive
GPR4	-1.03	inactive
GPR4	0.8	inactive
SEC23IP	0.8	inactive
SEC23IP	0.23	inactive
SEC23IP	0.1	inactive
SEC23IP	0.21	inactive
CST9	1.11	inactive
CST9	0.18	inactive
CST9	1.05	inactive
CST9	0.93	inactive
PTPRT	2.04	inactive
PTPRT	-0.66	inactive
PTPRT	-0.01	inactive
PTPRT	1.25	inactive
CHGA	-0.85	inactive
CHGA	-0.46	inactive
CHGA	-0.34	inactive
CHGA	0.34	inactive
ELL3	0.21	inactive
ELL3	0.81	inactive
ELL3	0.86	inactive
ELL3	0.05	inactive
HERC2	2.39	inactive
HERC2	1.03	inactive
HERC2	0.25	inactive
HERC2	0.99	inactive
TAB2	-1.01	inactive
TAB2	-1.03	inactive
TAB2	-1.17	inactive
TAB2	-0.41	inactive
ABCB9	0.66	inactive
ABCB9	-0.66	inactive
ABCB9	1.49	inactive
ABCB9	0.06	inactive
GCFC2	-1.3	inactive
GCFC2	-0.43	inactive
GCFC2	-0.06	inactive
GCFC2	0.14	inactive
YPEL3	1.14	inactive
YPEL3	0.72	inactive
YPEL3	0.2	inactive
YPEL3	0.8	inactive
SNX6		inactive
SNX6	0.13	inactive
SNX6	-0.46	inactive
SNX6	-0.49	inactive
SNX6	-0.31	inactive
PASD1	0.57	inactive
PASD1	0.75	inactive
PASD1	0.07	inactive
PASD1	-0.29	inactive
CDK15	0.37	inactive
CDK15	-0.06	inactive
CDK15	-0.32	inactive
CDK15	0	inactive

9 entries from above, reformatted:
gene symbol | TNF reporter robust z-score | activity call
TPGS1 | 0.45 | inactive
TPGS1 | 0.12 | inactive
TPGS1 | -0.03 | inactive
TPGS1 | -0.32 | inactive
AP3B1 | -1.4 | inactive
AP3B1 | -1.12 | inactive
AP3B1 | -0.65 | inactive
AP3B1 | 0.57 | inactive
KLRC1 | 2.26 | inactive
